Laboratory results from US12670969B2, “Network medicine framework for identifying drug repurposing opportunities” (Northeastern University, priority 2020, dated 2026).
Some of these results come from one statement about several compounds together. Some compounds share one range, which may span the group rather than tell each member.

Test system: SARS-CoV-2 strain USA-WA1/2020
Type: cell-based
Conditions: VeroE6 cells, drugs from 8 μM down to 8 nM, MOI about 0.2

Structure (SMILES) | drug-response classification (S, W, C, N) of effect on SARS-CoV-2 infection
CN1CCCC(n2nc(Cc3ccc(Cl)cc3)c3ccccc3c2=O)CC1 (centres unmarked) [azelastine] | S (Strong (S) or Weak (W) if the viral reduction was greater than 80% and 50%, respectively)
CN(Cc1cnc2nc(N)nc(N)c2n1)c1ccc(C(=O)N[C@@H](CCC(=O)O)C(=O)O)cc1 [methotrexate] | S (Strong (S) or Weak (W) if the viral reduction was greater than 80% and 50%, respectively)
